The source of these data is paper PMC2660419.

Like-named read-outs stand apart in the source and are kept apart here. Results are given in words; binding and its absence hold for the method and conditions named. Binding calls can cover weak binding; strength is not graded here. For some of these results: Tags and fused reporters may be left off the sequences shown. For some of these results: Binding seen in cells or lysates may run through a third protein.

Test [1] deals with T1, PTB1 domain of rat FE65 (amino acids 360-524) fused to the LexA DNA-binding domain (rat) (UniProt P46933).
T1 sequence: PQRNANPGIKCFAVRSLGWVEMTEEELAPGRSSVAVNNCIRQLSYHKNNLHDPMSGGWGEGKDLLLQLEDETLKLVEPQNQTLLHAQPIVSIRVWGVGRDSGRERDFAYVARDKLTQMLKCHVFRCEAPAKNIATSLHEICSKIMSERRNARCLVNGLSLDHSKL
Kind of test: two-hybrid; yeast; PTB1 of rat FE65 (360-524) fused to LexA DNA-binding domain as bait (DUALhybrid); adult mouse and fetal human brain cDNA libraries screened; bait dependency confirmed by retransformation.

The target in test [2] is GST-PTB1 (PTB1 domain of FE65 fused to GST) (rat) (UniProt P46933). Kind of test: pull-down; purified GST or GST-PTB1 on glutathione agarose beads incubated with H4 cell lysate expressing myc-tagged Teashirt constructs; washes PBS pH 7.4, 1% Triton X-100; anti-myc blot; only the target purified.
The target of test [3] is endogenous Teashirt of rat cortical neurons (rat (endogenous in primary cortical neurons)). The test can be described thus: co-IP; 100 ug extract of rat cortical neurons (E18 primary cultures); IP with KD74 anti-Teashirt antibody or mouse IgG, blot with rabbit anti-FE65.
Test [4] addresses GST-PTB1 (PTB1 domain of FE65 fused to GST) (rat) (UniProt P46933). The test can be described thus: pull-down; purified GST or GST-PTB1 on glutathione agarose beads incubated with H4 cell lysate expressing myc-tagged Teashirt constructs; washes PBS pH 7.4, 1% Triton X-100; anti-myc blot; only the target purified. This is another data set of the same source.

For the molecule Similar to Alex3 (mouse), the binding result in test [1] is reported as “binds”.
For the molecule “myc-tagged wild-type (NVKY) C-terminal construct of human Teashirt3 (from UniProt Q63HK5) (domain or fragment)”, the binding entry in test [2] is reported as “binds”.

B1: endogenous FE65 of rat cortical neurons (protein, UniProt P46933 1-711)
chain: MSVPSSLSQSAINANSHGGPALSFPFPLHAAHNQLLNAKLQATAVVPKDLRSAMGEGSVPEPGPANAKWLKEGQNQLRRAATAHRDQNRNVTLTLAEEASQEAETAPLGPKGLMHLYSELELSAHNAANRGLHGSALIINTQGLGPDEGEEKAAGEVEEEDEDEEEEDEEEEDLSSPQGLPEPLENVEVPSGPQVLTDGPREHSKSASLLFGMRNSAASDEDSSWATLSQGSPSYGSPEDTDSFWNPNAFETDSDLPAGWMRVQDTSGTYYWHIPTGTTQWEPPGRASPSQGNSPQEESQLTWTGFAHQEGFEEGEFWKDEPSEEAPMELGLKDPEEGTLPFSAQSLSPEPVPQEEENLPQRNANPGIKCFAVRSLGWVEMTEEELAPGRSSVAVNNCIRQLSYHKNNLHDPMSGGWGEGKDLLLQLEDETLKLVEPQNQTLLHAQPIVSIRVWGVGRDSGRERDFAYVARDKLTQMLKCHVFRCEAPAKNIATSLHEICSKIMSERRNARCLVNGLSLDHSKLVDVPFQVEFPAPKNELVQKFQVYYLGNVPVAKPVGVDVINGALESVLSSSSREQWTPSHVSVAPATLTILHQQTEAVLGECRVRFLSFLAVGRDVHTFAFIMAAGPASFCCHMFWCEPNAASLSEAVQAACMLRYQKCLDARSQTSTSCLPAPPAESVARRVGWTVRRGVQSLWGSLKPKRLGSQTP
Regarding B1, the binding result in test [3] is “binds”.

B2: myc-tagged mouse Teashirt1 (protein, UniProt Q5DTH5 1-1084)
chain: MPRRKQQAPRRSAAYVPEEELKAAEIDEEHAEDGGLSLDIQESEFACNEETEIKEAQSYQNSPVSTATNQDAGYGSPFSEGSDQLAHFKSSSSREEKEESQCPDSVSYPQDSLAQIKAVYANLFSESCWSSLALDLKKSNSATSNNDASQKESSTPTPTPPTSTASTACTTATTAITSCSTSTSHSSTTSNSSSSGYDWHQAALAKTLQQTSSYGLLPEPSLFSTVQLYRQNNKLYGSVFTGASKFRCKDCSAAYDTLVELTVHMNETGHYRDDNRDKDSEKTKRWSKPRKRSLMEMEGKEDAQKVLKCMYCGHSFESLQDLSVHMIKTKHYQKVPLKEPVPAITKLVPSTKKRALQDLASPCSPEPTGVATEVALSESAKDQKTANPYVTPNNRYGYQNGASYTWQFEARKAQILKCMECGSSHDTLQQLTAHMMVTGHFLKVTTSASKKGKQLVLDPVVEEKIQSIPLPPTTHTRLPASSIKKQPDSPAGSVASEEKKEPEKEKEKEKAPPAAGDAERKIKEETEDATEKFEPTALYQYLREEDLDDSPKGGVDILKSLENTVSTAISKAQNGAPSWGGYPSIHAAYQLPGTVKPLQSAVQSVQIQPSYASSVKSLSSTEHNALLHSPGSLTPPPHKSNVSAMEELVEKVTGKVSIKKEERPTEKEKSSPVKAISPVAKENKDLPKTEETGSKPQKKGSDSETGKAKKESTLDAHTPNGTEPLKAKVTNGCGHLGIITDHSPEPSFINPLSALQSIMNTHLGKVSKPVSPSLDPLAMLYKISNSMLDKPVYPTTPAKQADAIDRYYYENSDQPIDLTKSKNKPLVSGVADAVSSPLRESALMDISDMVKNLTGRLTPKSSTPSTVSEKSDADGSSFEEALDELSPVHKRKGRQSNWNPQHLLILQAQFASSLRETAEGKYIMSDLGPQERVHISKFTGLSMTTISHWLANVKYQLRRTGGTKFLKNLDTGHPVFFCNDCASQFRTASTYVSHLETHLGFSLKDLSKLPLSQIQEQQSVVSKALTNKTLGPLGSSEEDLGSTFQCKLCNRTFASKHAVKLHLSKTHGKSPEDHLIYVTELEKQ
As to B2, the binding result in test [4] is “binds”.

B3: myc-tagged mouse Teashirt3 (protein, UniProt Q8CGV9 1-1081)
chain: MPRRKQQAPRRAAAYVSDELKAAALVEDDVEPEEQAADGEPSAKYMCPEKELSKACPSYQNSPAAEFSSHEMDSESHISETSDRMADFESSSIKNEEETKEVQVPLEDTTVSDSLEQMKAVYNNFLSNSYWSNLNLNLHQPSSENNGGSSSSSSSSSSSCGSGSFDWHQSAMAKTLQQVSQNRMLPEPSLFSTVQLYRQSSKLYGSIFTGASKFRCKDCSAAYDTLVELTVHMNETGHYRDDNHETDNNNPKRWSKPRKRSLLEMEGKEDAQKVLKCMYCGHSFESLQDLSVHMIKTKHYQKVPLKEPVTPVAAKIIPAARKKPSLELELPSSPDSTGGTPKATLSDASDALQKNSNPYITPNNRYGHQNGASYAWHFEARKSQILKCMECGSSHDTLQELTAHMMVTGHFIKVTNSAMKKGKPIMETPVTPTITTLLDEKVQSVPLAATTFTSPSNTPASVSPKLAVEIKKEVDKEKAVPDEKPKEREKPSEEEEKYDISSKYHYLTENDLEESPKGGLDILKSLENTVTSAINKAQNGTPSWGGYPSIHAAYQLPNMMKLSLGSSGKSTPLKPMFGNSEIVSPTKTQTLVSPPSSQTSPMPKTNFHAMEELVKKVTEKVAKVEEKMKEPEGKLSPPKRATPSPCSSEQSEPIKMEASSDGSFKSQENSPSPPRDACKEASPSAEPVENGKELVKPLSGGLSGSTAIITDHPPEQPFVNPLSALQSVMNIHLGKAAKPSLPALDPMSMLFKMSNSLAEKAAVATPPPLQAKKAEHLDRYFYHVNNDQPIDLTKGKSDKGCSLGSGLLSPTSTSPATSSSTVTTAKTSAVVSFMSNSPLRENALSDISDMLKNLTESHTSKSSTPSSISEKSDIDGATLEEAEESTPAQKRKGRQSNWNPQHLLILQAQFAASLRQTSEGKYIMSDLSPQERMHISRFTGLSMTTISHWLANVKYQLRRTGGTKFLKNLDTGHPVFFCNDCASQIRTPSTYISHLESHLGFRLRDLSKLSTEQINNQIAQTKSPSEKLVTSSPEEDLGTTYQCKLCNRTFASKHAVKLHLSKTHGKSPEDHLLFVSELEKQ
Turning to B3, in test [4], the binding entry is reported as “binds”.

B4: full-length Teashirt3 (myc-tagged, interaction mapping of Figure 1C) (protein, UniProt Q63HK5 1-1081)
chain: MPRRKQQAPRRAAAYVSEELKAAALVDEGLDPEEHTADGEPSAKYMCPEKELARACPSYQNSPAAEFSCHEMDSESHISETSDRMADFESGSIKNEEETKEVTVPLEDTTVSDSLEQMKAVYNNFLSNSYWSNLNLNLHQPSSEKNNGSSSSSSSSSSSCGSGSFDWHQSAMAKTLQQVSQSRMLPEPSLFSTVQLYRQSSKLYGSIFTGASKFRCKDCSAAYDTLVELTVHMNETGHYRDDNHETDNNNPKRWSKPRKRSLLEMEGKEDAQKVLKCMYCGHSFESLQDLSVHMIKTKHYQKVPLKEPVTPVAAKIIPATRKKASLELELPSSPDSTGGTPKATISDTNDALQKNSNPYITPNNRYGHQNGASYAWHFEARKSQILKCMECGSSHDTLQELTAHMMVTGHFIKVTNSAMKKGKPIVETPVTPTITTLLDEKVQSVPLAATTFTSPSNTPASISPKLNVEVKKEVDKEKAVTDEKPKQKDKPGEEEEKCDISSKYHYLTENDLEESPKGGLDILKSLENTVTSAINKAQNGTPSWGGYPSIHAAYQLPNMMKLSLGSSGKSTPLKPMFGNSEIVSPTKNQTLVSPPSSQTSPMPKTNFHAMEELVKKVTEKVAKVEEKMKEPDGKLSPPKRATPSPCSSEVGEPIKMEASSDGGFRSQENSPSPPRDGCKDGSPLAEPVENGKELVKPLASSLSGSTAIITDHPPEQPFVNPLSALQSVMNIHLGKAAKPSLPALDPMSMLFKMSNSLAEKAAVATPPPLQSKKADHLDRYFYHVNNDQPIDLTKGKSDKGCSLGSVLLSPTSTAPATSSSTVTTAKTSAVVSFMSNSPLRENALSDISDMLKNLTESHTSKSSTPSSISEKSDIDGATLEEAEESTPAQKRKGRQSNWNPQHLLILQAQFAASLRQTSEGKYIMSDLSPQERMHISRFTGLSMTTISHWLANVKYQLRRTGGTKFLKNLDTGHPVFFCNDCASQIRTPSTYISHLESHLGFRLRDLSKLSTEQINSQIAQTKSPSEKMVTSSPEEDLGTSYQCKLCNRTFASKHAVKLHLSKTHGKSPEDHLLYVSELEKQ
Consider B4, for which the binding result in test [4] is recorded as “binds”.

B5: myc-tagged mouse Teashirt2 (protein, UniProt Q68FE9 1-1030)
chain: MPRRKQQAPKRAAGYAQEEVLKEEEEIKEEEEEEEDSGSVAQHQSSNDTGTDEELETGPEQKGYFSCQNSPGSHLSNQDAENESLLSDASDQVSDVKSVCGRDVSDKKANTHPKLPSEPHNCMDKMTAVYANILSDSYWSGLGLGFKLSNSERRNCDTRNSSGKNDFDWHQDALSKSLQQNLPSRSVSKPSLFSSVQLYRQSSKLCGSVFTGASRFRCRQCSAAYDTLVELTVHMNETGHYQDDNRKKDKLRPTSYSKPRKRAFQDMDKEDAQKVLKCMFCGDSFDSLQDLSVHMIKTKHYQKVPLKEPVPTISSKMVTPAKKRVFDVNRPCSPDSTTGSLADSFSSQKSANLQLPSNSRYGYQNGASYTWQFEACKSQILKCMECGSSHDTLQQLTTHMMVTGHFLKVTSSASKKGKQLVLDPLAVEKMQSLSETPNSESLAPKPSSNSPSECTASTTELKKESKKEKGEGIEDEQGVKSEDYEDSLQKPLDPTIKYQYLREEDLEDGSKGGGDILKSLENTVTTAINKAQNGAPSWSAYPSIHAAYQLSEGTKPPMAMGSQILQIRPNLANKLRPIAPKWKGMPLGPVPTSLALYTQVKKETEDKDEVVKQCGKESPHEEATSFSQPEGESFSKIEPPSESRKAEPCPLKEEEKPQKEKPEPLEPVSSLTNGCAPANHTPALPSINPLSALQSVLNNHLGKATEPLRSPSCSSPNSSTSPVFHKSSLHVVDKPVISPTSTRPAASVARHYLFENTDQPIDLTKSKSKRAESSQAQSCTSPPQKHALCDIADMVKVLPKATTPKPAASSRVPPMKLEIDVRRFEDVSSEVSTLHKRKGRQSNWNPQHLLILQAQFASSLFQTSEGKYLLSDLGPQERMQISKFTGLSMTTISHWLANVKYQLRKTGGTKFLKNMDKGHPIFYCSDCASQFRTPSTYISHLESHLGFQMKDMTRMAADQQSKVEQEISRVSSAQRSPETIAGEEDTDSKFKCKLCRRTFVSKHAVKLHLSKTHSKSPEHHSQFVADVDEE
Regarding B5, in test [4], the binding result was “binds”.
